Test results as given in publication PMC6398391 (The FEBS journal, 2018).
No constants are given. Whether binding was seen depends on the method and setting.

Molecular target: INI1/hSNF5 RPT1 (residues 184-258) (human) (UniProt Q12824)
Assay: SEC-MALS + other: NMR; INI1 RPT1 alone; both purified

B1: INI1/hSNF5 RPT1 (residues 184-258) (domain or fragment, human, UniProt Q12824 184-258, looked up)
chain: EVLVPIRLDMEIDGQKLRDAFTWNMNEKLMTPEMFSEILCDDLDLNPLTFVPAIASAIRQQIESYPTDSILEDQS
- binding: no binding
